Source: paper doi:10.1101/2021.02.19.431861
Read-outs that look alike come from different tables or passages of the source. No constants are given. Whether binding was seen depends on the method and setting. In cells and extracts the contact can be indirect. Some entries that bind do so weakly or less than the wild type. For some of these results: Tags and fused reporters may be left off the sequences shown.

Sequences of proteins named here, by UniProt entry; tags and fusion partners are left off. A change or cut given only in a name is not applied to a line headed by its entry. Residues count along the entry.
UniProt Q9BXW4, residues 1-126: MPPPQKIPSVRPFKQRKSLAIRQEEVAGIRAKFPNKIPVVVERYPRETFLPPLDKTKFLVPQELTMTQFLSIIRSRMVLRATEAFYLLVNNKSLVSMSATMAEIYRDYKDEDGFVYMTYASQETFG
UniProt Q8TDY2: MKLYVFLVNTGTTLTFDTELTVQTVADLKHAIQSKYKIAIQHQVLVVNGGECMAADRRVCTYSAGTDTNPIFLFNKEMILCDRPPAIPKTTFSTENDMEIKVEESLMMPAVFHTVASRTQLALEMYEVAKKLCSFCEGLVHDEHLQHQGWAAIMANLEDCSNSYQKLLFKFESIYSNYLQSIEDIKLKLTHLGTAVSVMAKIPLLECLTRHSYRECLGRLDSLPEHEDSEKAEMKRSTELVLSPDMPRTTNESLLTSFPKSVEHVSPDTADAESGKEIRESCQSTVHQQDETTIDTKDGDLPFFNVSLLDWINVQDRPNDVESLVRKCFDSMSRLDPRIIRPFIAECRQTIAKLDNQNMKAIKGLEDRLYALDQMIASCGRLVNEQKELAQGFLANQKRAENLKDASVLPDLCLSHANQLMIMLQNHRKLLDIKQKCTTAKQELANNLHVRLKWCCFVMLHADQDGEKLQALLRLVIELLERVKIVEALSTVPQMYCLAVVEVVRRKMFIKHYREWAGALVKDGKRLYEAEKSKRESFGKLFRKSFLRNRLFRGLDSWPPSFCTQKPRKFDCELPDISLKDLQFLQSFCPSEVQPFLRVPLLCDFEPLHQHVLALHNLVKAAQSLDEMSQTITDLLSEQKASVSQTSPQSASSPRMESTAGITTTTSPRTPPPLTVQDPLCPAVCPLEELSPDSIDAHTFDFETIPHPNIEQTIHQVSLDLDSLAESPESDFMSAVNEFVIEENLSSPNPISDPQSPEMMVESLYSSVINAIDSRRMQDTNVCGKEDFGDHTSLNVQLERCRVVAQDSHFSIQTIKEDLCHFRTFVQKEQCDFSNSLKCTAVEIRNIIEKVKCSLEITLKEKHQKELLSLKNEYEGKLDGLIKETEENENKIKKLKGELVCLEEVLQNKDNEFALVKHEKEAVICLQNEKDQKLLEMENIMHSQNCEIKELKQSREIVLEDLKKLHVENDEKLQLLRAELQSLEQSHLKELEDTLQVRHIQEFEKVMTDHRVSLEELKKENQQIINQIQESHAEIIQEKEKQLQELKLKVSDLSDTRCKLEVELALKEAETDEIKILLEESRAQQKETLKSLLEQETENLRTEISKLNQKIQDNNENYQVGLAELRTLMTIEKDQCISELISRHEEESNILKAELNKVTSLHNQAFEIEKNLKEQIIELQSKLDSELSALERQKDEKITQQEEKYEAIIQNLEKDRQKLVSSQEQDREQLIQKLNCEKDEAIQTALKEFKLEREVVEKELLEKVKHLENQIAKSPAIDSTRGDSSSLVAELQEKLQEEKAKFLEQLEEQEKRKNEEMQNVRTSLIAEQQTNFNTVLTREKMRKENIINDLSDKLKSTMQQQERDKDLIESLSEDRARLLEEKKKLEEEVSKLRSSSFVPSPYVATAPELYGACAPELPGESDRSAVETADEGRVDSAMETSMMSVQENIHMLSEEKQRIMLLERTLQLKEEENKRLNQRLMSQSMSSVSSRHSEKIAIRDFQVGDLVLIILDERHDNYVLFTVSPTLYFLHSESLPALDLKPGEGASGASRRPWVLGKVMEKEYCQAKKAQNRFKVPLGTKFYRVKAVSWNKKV
UniProt Q9H1Y0: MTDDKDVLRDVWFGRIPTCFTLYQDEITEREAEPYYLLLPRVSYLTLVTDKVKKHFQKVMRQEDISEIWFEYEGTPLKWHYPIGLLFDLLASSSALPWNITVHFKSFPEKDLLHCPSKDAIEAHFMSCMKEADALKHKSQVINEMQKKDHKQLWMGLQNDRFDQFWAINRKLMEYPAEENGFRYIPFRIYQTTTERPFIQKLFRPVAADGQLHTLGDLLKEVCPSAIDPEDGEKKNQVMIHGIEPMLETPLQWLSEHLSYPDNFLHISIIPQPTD
UniProt O94817: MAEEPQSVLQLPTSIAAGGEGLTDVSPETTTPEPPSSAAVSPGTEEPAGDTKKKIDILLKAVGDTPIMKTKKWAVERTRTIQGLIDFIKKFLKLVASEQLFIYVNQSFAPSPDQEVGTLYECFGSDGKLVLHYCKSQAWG
UniProt Q14457: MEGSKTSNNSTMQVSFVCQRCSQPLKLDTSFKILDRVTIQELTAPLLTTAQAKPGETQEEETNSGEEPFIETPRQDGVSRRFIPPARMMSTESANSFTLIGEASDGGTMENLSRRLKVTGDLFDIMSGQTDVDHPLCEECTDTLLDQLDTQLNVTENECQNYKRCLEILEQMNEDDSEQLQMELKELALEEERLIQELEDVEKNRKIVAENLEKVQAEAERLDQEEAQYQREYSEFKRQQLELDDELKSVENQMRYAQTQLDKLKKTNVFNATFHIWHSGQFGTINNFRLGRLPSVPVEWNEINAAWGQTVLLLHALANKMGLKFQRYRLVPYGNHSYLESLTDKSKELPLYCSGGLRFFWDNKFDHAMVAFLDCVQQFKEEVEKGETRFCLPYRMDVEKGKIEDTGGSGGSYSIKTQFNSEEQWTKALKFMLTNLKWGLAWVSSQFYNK
UniProt O00443: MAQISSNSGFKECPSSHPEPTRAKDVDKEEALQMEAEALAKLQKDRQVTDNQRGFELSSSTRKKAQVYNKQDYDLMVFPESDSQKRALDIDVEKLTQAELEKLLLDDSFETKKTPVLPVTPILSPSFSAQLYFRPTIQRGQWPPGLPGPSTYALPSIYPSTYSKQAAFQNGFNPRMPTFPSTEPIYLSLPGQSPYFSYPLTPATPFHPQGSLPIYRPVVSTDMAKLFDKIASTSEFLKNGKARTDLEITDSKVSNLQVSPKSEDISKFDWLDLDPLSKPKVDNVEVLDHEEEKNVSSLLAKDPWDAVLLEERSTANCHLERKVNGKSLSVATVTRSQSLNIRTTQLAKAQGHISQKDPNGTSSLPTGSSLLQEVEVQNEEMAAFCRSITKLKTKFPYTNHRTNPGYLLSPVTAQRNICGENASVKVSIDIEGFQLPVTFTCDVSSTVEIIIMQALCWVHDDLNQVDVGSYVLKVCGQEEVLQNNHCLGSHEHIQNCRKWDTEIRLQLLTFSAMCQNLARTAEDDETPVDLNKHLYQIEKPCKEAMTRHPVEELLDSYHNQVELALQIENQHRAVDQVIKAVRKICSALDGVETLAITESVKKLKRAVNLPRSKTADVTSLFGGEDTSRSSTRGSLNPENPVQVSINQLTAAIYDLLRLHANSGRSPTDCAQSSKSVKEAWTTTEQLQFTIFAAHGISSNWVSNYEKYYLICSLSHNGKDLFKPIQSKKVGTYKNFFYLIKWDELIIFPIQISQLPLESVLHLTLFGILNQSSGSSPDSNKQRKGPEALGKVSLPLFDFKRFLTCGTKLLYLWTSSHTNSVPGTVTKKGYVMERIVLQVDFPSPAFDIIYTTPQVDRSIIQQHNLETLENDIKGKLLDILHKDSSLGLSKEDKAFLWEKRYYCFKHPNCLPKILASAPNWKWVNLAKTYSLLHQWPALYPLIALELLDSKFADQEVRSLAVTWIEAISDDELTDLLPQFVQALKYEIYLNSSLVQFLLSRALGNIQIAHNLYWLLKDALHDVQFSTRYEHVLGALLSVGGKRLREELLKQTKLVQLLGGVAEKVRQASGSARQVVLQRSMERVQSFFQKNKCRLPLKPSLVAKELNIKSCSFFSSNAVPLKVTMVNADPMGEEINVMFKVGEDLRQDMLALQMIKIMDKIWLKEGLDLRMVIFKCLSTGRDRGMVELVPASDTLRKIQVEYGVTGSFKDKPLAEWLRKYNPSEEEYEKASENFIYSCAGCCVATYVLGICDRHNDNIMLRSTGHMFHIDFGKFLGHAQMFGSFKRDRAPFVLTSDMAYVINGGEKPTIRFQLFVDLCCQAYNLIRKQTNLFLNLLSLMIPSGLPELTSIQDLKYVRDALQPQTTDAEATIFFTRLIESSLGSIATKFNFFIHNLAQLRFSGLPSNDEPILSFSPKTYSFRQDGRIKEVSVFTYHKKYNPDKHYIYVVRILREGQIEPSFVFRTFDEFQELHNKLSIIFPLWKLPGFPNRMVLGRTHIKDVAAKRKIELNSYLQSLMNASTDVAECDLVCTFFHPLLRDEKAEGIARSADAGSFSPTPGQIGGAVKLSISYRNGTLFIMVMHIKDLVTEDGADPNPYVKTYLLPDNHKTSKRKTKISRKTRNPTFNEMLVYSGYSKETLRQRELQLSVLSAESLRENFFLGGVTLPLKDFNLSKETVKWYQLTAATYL

Key:
Assay in all cases: co-IP
[1] = target: FLAG-tagged LC3C C127Stop (UniProt Q9BXW4)
[2] = target: FIP200 (HEK293 cells transfected with the indicated constructs, Figure 3H) (UniProt Q8TDY2)
[3] = target: FIP200 (endogenous) (human (endogenous in Caki-1, HEK293T)) (UniProt Q8TDY2)
HA-ATG13 [4] = target: T1, HA-ATG13 (UniProt O75143)
T1 sequence: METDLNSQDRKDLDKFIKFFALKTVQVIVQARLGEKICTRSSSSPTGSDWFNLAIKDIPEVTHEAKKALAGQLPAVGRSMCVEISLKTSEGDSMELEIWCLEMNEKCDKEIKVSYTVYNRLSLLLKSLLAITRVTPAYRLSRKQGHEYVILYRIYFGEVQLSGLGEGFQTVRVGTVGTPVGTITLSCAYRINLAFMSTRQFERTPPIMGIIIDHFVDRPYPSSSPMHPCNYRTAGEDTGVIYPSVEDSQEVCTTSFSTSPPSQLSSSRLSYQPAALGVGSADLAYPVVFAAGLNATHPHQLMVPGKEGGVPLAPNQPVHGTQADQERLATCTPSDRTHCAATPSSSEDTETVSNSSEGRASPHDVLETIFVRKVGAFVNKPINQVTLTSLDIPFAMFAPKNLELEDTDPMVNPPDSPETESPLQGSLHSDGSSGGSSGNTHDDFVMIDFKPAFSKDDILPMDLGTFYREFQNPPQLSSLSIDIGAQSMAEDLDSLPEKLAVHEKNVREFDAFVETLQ

[5] = target: T2, UVRAG (endogenous) (human (endogenous in 786-O VHL(+), Caki-1, HEK293T)) (UniProt Q9P2Y5)
T2 sequence: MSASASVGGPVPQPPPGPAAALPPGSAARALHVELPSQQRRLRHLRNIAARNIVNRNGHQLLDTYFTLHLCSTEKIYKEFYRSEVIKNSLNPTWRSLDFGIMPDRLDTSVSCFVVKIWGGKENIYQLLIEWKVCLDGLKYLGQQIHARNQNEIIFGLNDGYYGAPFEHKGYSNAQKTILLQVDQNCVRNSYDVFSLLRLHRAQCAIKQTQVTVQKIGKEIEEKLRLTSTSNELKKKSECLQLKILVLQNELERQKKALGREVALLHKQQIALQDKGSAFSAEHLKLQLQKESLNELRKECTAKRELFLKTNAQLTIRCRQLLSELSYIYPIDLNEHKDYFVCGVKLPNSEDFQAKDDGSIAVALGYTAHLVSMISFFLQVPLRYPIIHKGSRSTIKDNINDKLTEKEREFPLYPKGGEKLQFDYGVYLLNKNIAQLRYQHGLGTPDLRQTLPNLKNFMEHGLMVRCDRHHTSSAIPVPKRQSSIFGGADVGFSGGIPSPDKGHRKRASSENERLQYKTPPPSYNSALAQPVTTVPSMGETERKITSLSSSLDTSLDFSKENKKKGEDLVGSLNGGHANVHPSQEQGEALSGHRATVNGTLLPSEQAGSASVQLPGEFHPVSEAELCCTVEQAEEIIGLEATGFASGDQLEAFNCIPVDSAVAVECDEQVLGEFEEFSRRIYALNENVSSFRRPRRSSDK

[6] = target: FIP200 (HEK293 cells transfected with the indicated constructs, Figure 3H) (UniProt Q8TDY2); remark: listed apart in the source
[7] = target: T3, Strawberry-tagged ULK3 (STR-ULK3) (UniProt Q6PHR2)
T3 sequence: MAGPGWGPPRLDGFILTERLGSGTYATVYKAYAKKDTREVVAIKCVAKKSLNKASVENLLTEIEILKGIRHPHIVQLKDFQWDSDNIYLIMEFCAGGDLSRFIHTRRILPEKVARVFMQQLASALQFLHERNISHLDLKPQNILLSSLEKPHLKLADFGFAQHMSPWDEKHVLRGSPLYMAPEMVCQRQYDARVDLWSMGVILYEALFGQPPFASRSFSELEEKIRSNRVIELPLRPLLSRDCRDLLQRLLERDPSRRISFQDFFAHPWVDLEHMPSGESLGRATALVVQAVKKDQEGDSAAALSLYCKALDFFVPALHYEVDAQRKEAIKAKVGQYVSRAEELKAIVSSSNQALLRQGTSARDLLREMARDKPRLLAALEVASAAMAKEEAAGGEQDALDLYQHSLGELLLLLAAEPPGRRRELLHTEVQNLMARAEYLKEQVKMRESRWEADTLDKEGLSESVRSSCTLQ

[8] = target: FIP200 (endogenous) (human (endogenous in Caki-1, HEK293T)) (UniProt Q8TDY2); remark: listed apart in the source
HA-ATG13 [9] = target: T1, HA-ATG13; remark: listed apart in the source

Molecule: ATG5-12 conjugate (from UniProt Q9H1Y0;O94817) (complex)
- binding [1]: binds

Molecule: BECN1 (endogenous) (from UniProt Q14457 1-450)
- binding [1]: binds

Molecule: FIP200 (endogenous) (from UniProt Q8TDY2 1-1594)
- binding [1]: binds

Molecule: LC3C (HEK293 cells transfected with the indicated constructs, Figure 3H) (from UniProt Q9BXW4 1-126)
- binding [2]: binds

Molecule: MAP1LC3C (LC3C), endogenous (from UniProt Q9BXW4 1-126)
- binding [3]: binds
- binding (HA-ATG13 [4]): binds

Molecule: PIK3C2A (endogenous) (from UniProt O00443 1-1686)
- binding [5]: binds

B1: ULK3 (HEK293 cells transfected with the indicated constructs, Figure 3H) (protein, UniProt Q6PHR2 1-472)
chain: T3 sequence
- binding [6]: binds

B2: MKLP1 (endogenous) (protein, UniProt Q02241 1-960)
chain: MKSARAKTPRKPTVKKGSQTNLKDPVGVYCRVRPLGFPDQECCIEVINNTTVQLHTPEGYRLNRNGDYKETQYSFKQVFGTHTTQKELFDVVANPLVNDLIHGKNGLLFTYGVTGSGKTHTMTGSPGEGGLLPRCLDMIFNSIGSFQAKRYVFKSNDRNSMDIQCEVDALLERQKREAMPNPKTSSSKRQVDPEFADMITVQEFCKAEEVDEDSVYGVFVSYIEIYNNYIYDLLEEVPFDPIKPKPPQSKLLREDKNHNMYVAGCTEVEVKSTEEAFEVFWRGQKKRRIANTHLNRESSRSHSVFNIKLVQAPLDADGDNVLQEKEQITISQLSLVDLAGSERTNRTRAEGNRLREAGNINQSLMTLRTCMDVLRENQMYGTNKMVPYRDSKLTHLFKNYFDGEGKVRMIVCVNPKAEDYEENLQVMRFAEVTQEVEVARPVDKAICGLTPGRRYRNQPRGPVGNEPLVTDVVLQSFPPLPSCEILDINDEQTLPRLIEALEKRHNLRQMMIDEFNKQSNAFKALLQEFDNAVLSKENHMQGKLNEKEKMISGQKLEIERLEKKNKTLEYKIEILEKTTTIYEEDKRNLQQELETQNQKLQRQFSDKRRLEARLQGMVTETTMKWEKECERRVAAKQLEMQNKLWVKDEKLKQLKAIVTEPKTEKPERPSRERDREKVTQRSVSPSPVPLSSNYIAQISNGQQLMSQPQLHRRSNSCSSISVASCISEWEQKIPTYNTPLKVTSIARRRQQEPGQSKTCIVSDRRRGMYWTEGREVVPTFRNEIEIEEDHCGRLLFQPDQNAPPIRLRHRRSRSAGDRWVDHKPASNMQTETVMQPHVPHAITVSVANEKALAKCEKYMLTHQELASDGEIETKLIKGDIYKTRGGGQSVQFTDIETLKQESPNGSRKRRSSTVAPAQPDGAESEWTDVETRCSVAVEMRAGSQLGPGYQHHAQPKRKKP
- binding [7]: binds

B3: CYK4 (endogenous) (protein, UniProt Q9H0H5 1-632)
chain: MDTMMLNVRNLFEQLVRRVEILSEGNEVQFIQLAKDFEDFRKKWQRTDHELGKYKDLLMKAETERSALDVKLKHARNQVDVEIKRRQRAEADCEKLERQIQLIREMLMCDTSGSIQLSEEQKSALAFLNRGQPSSSNAGNKRLSTIDESGSILSDISFDKTDESLDWDSSLVKTFKLKKREKRRSTSRQFVDGPPGPVKKTRSIGSAVDQGNESIVAKTTVTVPNDGGPIEAVSTIETVPYWTRSRRKTGTLQPWNSDSTLNSRQLEPRTETDSVGTPQSNGGMRLHDFVSKTVIKPESCVPCGKRIKFGKLSLKCRDCRVVSHPECRDRCPLPCIPTLIGTPVKIGEGMLADFVSQTSPMIPSIVVHCVNEIEQRGLTETGLYRISGCDRTVKELKEKFLRVKTVPLLSKVDDIHAICSLLKDFLRNLKEPLLTFRLNRAFMEAAEITDEDNSIAAMYQAVGELPQANRDTLAFLMIHLQRVAQSPHTKMDVANLAKVFGPTIVAHAVPNPDPVTMLQDIKRQPKVVERLLSLPLEYWSQFMMVEQENIDPLHVIENSNAFSTPQTPDIKVSLLGPVTTPEHQLLKTPSSSSLSQRVRSTLTKNTPRFGSKSKSATNLGRQGNFFASPMLK
- binding [7]: binds

B4: CEP55 (endogenous) (protein, UniProt Q53EZ4 1-464)
chain: MSSRSTKDLIKSKWGSKPSNSKSETTLEKLKGEIAHLKTSVDEITSGKGKLTDKERHRLLEKIRVLEAEKEKNAYQLTEKDKEIQRLRDQLKARYSTTTLLEQLEETTREGERREQVLKALSEEKDVLKQQLSAATSRIAELESKTNTLRLSQTVAPNCFNSSINNIHEMEIQLKDALEKNQQWLVYDQQREVYVKGLLAKIFELEKKTETAAHSLPQQTKKPESEGYLQEEKQKCYNDLLASAKKDLEVERQTITQLSFELSEFRRKYEETQKEVHNLNQLLYSQRRADVQHLEDDRHKTEKIQKLREENDIARGKLEEEKKRSEELLSQVQFLYTSLLKQQEEQTRVALLEQQMQACTLDFENEKLDRQHVQHQLHVILKELRKARNQITQLESLKQLHEFAITEPLVTFQGETENREKVAASPKSPTAALNESLVECPKCNIQYPATEHRDLLVHVEYCSK
- binding [7]: binds

B5: ULK3 (endogenous) (protein, UniProt Q6PHR2 1-472)
chain: T3 sequence
- binding [8]: binds
- binding (HA-ATG13 [9]): binds
